# Structures can show the parent of a compound that is named as a salt. The list shows a part of the results. Repeats are few or missing, and single values can be far off.
# Key:
# Assay in all cases: reduction in cell viability relative to untreated/vehicle; higher = more growth inhibition
# Conditions in all cases: 200 nM; 72 h
# [1] = system: M229P (parental melanoma line)
# [2] = system: M229R (matched melanoma line resistant to BRAF inhibitors)
# [3] = system: M238P (parental melanoma line)
# [4] = system: M238R (matched melanoma line resistant to BRAF inhibitors)
# [5] = system: M249P (parental melanoma line)
# [6] = system: M249R (matched melanoma line resistant to BRAF inhibitors)
# [7] = system: UACC62P (parental melanoma line)
# [8] = system: UACC62R (matched melanoma line resistant to BRAF inhibitors)
SMILES,reduction in cell viability [1] [%],reduction in cell viability [2] [%],reduction in cell viability [3] [%],reduction in cell viability [4] [%],reduction in cell viability [5] [%],reduction in cell viability [6] [%],reduction in cell viability [7] [%],reduction in cell viability [8] [%]
CCc1cc(-c2n[nH]c(C)c2-c2ccc3c(c2)OCCO3)c(O)cc1O,< 0,< 0,< 0,< 0,< 0,< 0,< 0,1.07
CC(C)(C)OC(=O)N[C@H]1CCCCC/C=C\[C@@H]2C[C@@]2(C(=O)NS(=O)(=O)C2CC2)NC(=O)[C@@H]2C[C@@H](OC(=O)N3Cc4cccc(F)c4C3)CN2C1=O [Danoprevir],< 0,< 0,< 0,< 0,< 0,< 0,10.4,< 0
CCOC(=O)C1=C[C@@H](OC(CC)CC)[C@H](NC(C)=O)[C@@H](N)C1 [Oseltamivir phosphate],< 0,< 0,< 0,< 0,< 0,16.3,9.11,< 0
CC(C)CC(=O)N[C@H](C(=O)N[C@H](C(=O)N[C@@H](CC(C)C)[C@@H](O)CC(=O)N[C@@H](C)C(=O)N[C@@H](CC(C)C)[C@@H](O)CC(=O)O)C(C)C)C(C)C [Pepstatin],< 0,< 0,< 0,37.3,< 0,< 0,2.5,< 0
c1cc(OCCN2CCCCC2)cc(-c2n[nH]c3ccc(-c4nnc[nH]4)cc23)c1,< 0,< 0,< 0,< 0,< 0,< 0,< 0,< 0
CNC1CCCN(c2c(F)cc3c(=O)c(C(=O)O)cn(C4CC4)c3c2OC)C1 (stereo unspecified) [Balofloxacin],< 0,< 0,< 0,< 0,< 0,< 0,3.89,< 0
CN1CCN(c2cc(C(=O)Nc3ccc4c(c3)-c3c(c(C(N)=O)nn3-c3ccc(F)cc3)CC4)c(Cl)cn2)CC1,< 0,< 0,< 0,< 0,< 0,< 0,< 0,< 0
CCC(=O)NC[C@H](Cc1ccc(OCCc2nc(-c3ccccc3)oc2C)cc1)N/C(C)=C\C(=O)c1ccc(C(F)(F)F)cc1,< 0,< 0,< 0,< 0,< 0,< 0,< 0,< 0
CCOC(=O)c1ccc(OC(=O)CCCCCNC(=N)N)cc1 [Gabexate mesilate],< 0,< 0,< 0,< 0,< 0,< 0,< 0,< 0
Cc1cc(Nc2cc(N3CCN(C)CC3)nc(Sc3ccc(NC(=O)C4CC4)cc3)n2)n[nH]1 [Tozasertib],< 0,< 0,22.2,27.9,< 0,7.94,5.1,65.1
CCNC(=O)c1noc(-c2cc(C(C)C)c(O)cc2O)c1-c1ccc(CN2CCOCC2)cc1,49.9,57.2,50.2,48.6,25.3,28.2,64.3,66.2
C[C@]12C=CC(=O)C=C1CC[C@@H]1[C@@H]2C(=O)C[C@@]2(C)[C@H]1CC[C@]2(O)C(=O)CO [Prednisone???],< 0,< 0,< 0,< 0,< 0,< 0,< 0,< 0
O=C1NC(=O)C(c2ccccc2[N+](=O)[O-])=C1Nc1ccc(O)c(Cl)c1,< 0,< 0,< 0,< 0,< 0,< 0,< 0,< 0
Nc1ncn([C@@H]2O[C@H](CO)[C@@H](O)[C@H]2O)c(=O)n1 [Azacitidine],< 0,< 0,12.9,< 0,< 0,27.8,14.4,< 0
CC[C@@]1(O)C(=O)OCc2c1cc1n(c2=O)Cc2cc3c(CN(C)C)c(O)ccc3nc2-1 [Topotecan HCl],< 0,9.83,69,23.3,23.6,45.2,63.8,78.5
COc1cnc(NS(=O)(=O)c2ccc(N)cc2)nc1 [Sulfameter],< 0,< 0,< 0,< 0,< 0,< 0,< 0,< 0
COc1cc(Nc2ncc3c(n2)-c2ccc(Cl)cc2C(c2c(F)cccc2OC)=NC3)ccc1C(=O)O [Alisertib],< 0,< 0,29.3,20.8,< 0,12.5,22,67.5
COc1cccc2c(NCc3ccccc3)nc(-n3c(N)nc4ccccc43)nc12,< 0,< 0,< 0,< 0,< 0,0.56,0.55,< 0
O=c1c(-c2ccc(O)cc2)coc2cc(O[C@@H]3O[C@H](CO)[C@@H](O)[C@H](O)[C@H]3O)cc(O)c12 [Genistin],< 0,< 0,< 0,< 0,3.23,< 0,< 0,< 0
CCC(C)(Oc1ccc(C2(c3ccc(OC(C)(CC)C(=O)O)cc3)CCCCC2)cc1)C(=O)O (stereo unspecified) [Clinofibrate],< 0,< 0,< 0,< 0,< 0,< 0,< 0,< 0
CN(CC(=O)N(Cc1ccc(C2CCCCC2)cc1)c1ccc(C(=O)O)c(O)c1)S(=O)(=O)c1c(F)c(F)c(F)c(F)c1F,< 0,< 0,< 0,< 0,< 0,< 0,0.24,< 0

# An excerpt from above in order of count of non-hydrogen atoms, ascending:
SMILES,reduction in cell viability [1] [%],reduction in cell viability [2] [%],reduction in cell viability [3] [%],reduction in cell viability [4] [%],reduction in cell viability [5] [%],reduction in cell viability [6] [%],reduction in cell viability [7] [%],reduction in cell viability [8] [%]
C[C@]12C=CC(=O)C=C1CC[C@@H]1[C@@H]2C(=O)C[C@@]2(C)[C@H]1CC[C@]2(O)C(=O)CO [Prednisone???],< 0,< 0,< 0,< 0,< 0,< 0,< 0,< 0
c1cc(OCCN2CCCCC2)cc(-c2n[nH]c3ccc(-c4nnc[nH]4)cc23)c1,< 0,< 0,< 0,< 0,< 0,< 0,< 0,< 0
COc1cccc2c(NCc3ccccc3)nc(-n3c(N)nc4ccccc43)nc12,< 0,< 0,< 0,< 0,< 0,0.56,0.55,< 0

# Continued.

SMILES,reduction in cell viability [1] [%],reduction in cell viability [2] [%],reduction in cell viability [3] [%],reduction in cell viability [4] [%],reduction in cell viability [5] [%],reduction in cell viability [6] [%],reduction in cell viability [7] [%],reduction in cell viability [8] [%]
COc1cc(NS(=O)(=O)c2ccc(N)cc2)nc(OC)n1 [Sulphadimethoxine],< 0,< 0,< 0,< 0,< 0,< 0,< 0,< 0
COC(=O)C[C@](O)(CCCC(C)(C)O)C(=O)O[C@@H]1C(OC)=C[C@]23CCCN2CCc2cc4c(cc2[C@H]13)OCO4 [Omacetaxine mepesuccinate],60.4,68.4,67.8,73.5,64.6,76.1,63,54.6
CC(=O)OCC(=O)[C@@]12OC(C)(C)O[C@@H]1C[C@H]1[C@@H]3C[C@H](F)C4=CC(=O)C=C[C@]4(C)[C@@]3(F)[C@@H](O)C[C@@]12C [Fluocinonide],< 0,< 0,< 0,< 0,< 0,< 0,< 0,< 0
CN(C)CCC(c1ccc(Cl)cc1)c1ccccn1 (stereo unspecified) [Chlorphenamine maleate],< 0,< 0,< 0,< 0,< 0,< 0,< 0,< 0
Nc1ccn([C@@H]2CS[C@H](CO)O2)c(=O)n1 [Lamivudine],< 0,< 0,< 0,< 0,< 0,< 0,< 0,< 0
O=C(O)c1ccc(-c2c[nH]c3ncc(-c4ccccc4)cc23)cc1C1CCCC1,< 0,< 0,< 0,< 0,< 0,< 0,< 0,< 0
Cc1ccccc1C(C(=O)NC1CCCC1)N(C(=O)Cn1cnc2ccccc21)c1cccc(F)c1 (stereo unspecified),< 0,< 0,< 0,< 0,< 0,< 0,< 0,< 0
c1ccc(-c2nn3c(c2-c2ccnc4cc(OCCN5CCOCC5)ccc24)CCC3)nc1,< 0,< 0,< 0,< 0,< 0,< 0,< 0,< 0
Cc1cc(-c2ncc(CC(=O)Nc3ccc(-c4cnccn4)cn3)cc2C)ccn1,< 0,< 0,< 0,< 0,< 0,< 0,< 0,< 0
NC(=O)c1cnccn1 [Pyrazinamide],< 0,0.63,< 0,< 0,< 0,< 0,< 0,< 0
COc1ccccc1OCCNCC(O)COc1cccc2[nH]c3ccccc3c12 (stereo unspecified) [Carvedilol],< 0,< 0,< 0,< 0,< 0,< 0,< 0,< 0
CCCOc1ccc2[nH]c(NC(=O)OC)nc2c1 [Oxibendazole],5.59,15.5,22.4,4.48,6.77,16.3,13.4,61.6
Cn1cc(-c2ccc3nnc(Sc4ccc5ncccc5c4)n3n2)cn1,< 0,< 0,< 0,< 0,< 0,< 0,< 0,< 0
CN(c1ccccc1CNc1nc(Nc2ccc3c(c2)CC(=O)N3)ncc1C(F)(F)F)S(C)(=O)=O,< 0,< 0,< 0,< 0,< 0,< 0,< 0,< 0
O=C(O)c1cn(C2CC2)c2cc(N3CCNCC3)c(F)cc2c1=O [Ciprofloxacin],< 0,< 0,< 0,< 0,< 0,< 0,< 0,< 0
CCOC(=O)[C@H](CCc1ccccc1)N[C@@H](C)C(=O)N1[C@H](C(=O)O)C[C@@H]2CCC[C@@H]21 [Ramipril],< 0,< 0,< 0,< 0,< 0,0.64,2.29,< 0
CC(C)[C@H](CO)Nc1nc(Nc2ccc(C(=O)O)c(Cl)c2)c2ncn(C(C)C)c2n1 [Purvalanol B],< 0,< 0,< 0,< 0,< 0,0.71,< 0,< 0
"CC(=O)C1=C(O)C=C2Oc3c(C(C)=O)c(O)c(C)c(O)c3C2(C)C1=O (single isomer, unassigned; (+)) [(+)-Usniacin]",< 0,< 0,< 0,< 0,< 0,< 0,< 0,< 0
Cn1c(NCCN(CCO)CCCc2ccc([N+](=O)[O-])cc2)cc(=O)n(C)c1=O [Nifekalant],< 0,< 0,< 0,< 0,< 0,3.2,< 0,< 0
COCC(=O)NC/C=C/c1ccc2ncnc(Nc3ccc(Oc4ccc(C)nc4)c(C)c3)c2c1,< 0,< 0,< 0,< 0,< 0,< 0,< 0,< 0
Cc1ccn(-c2ccc(-c3ncco3)cc2)c(=O)c1-c1ccc2nc(N)ncc2c1,< 0,< 0,< 0,< 0,< 0,< 0,< 0,< 0

# From the supplement of paper PMC9015667
